Taken from: PubChem BioAssay AID1259405 (NCATS, 2018)

Purpose: 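Mouse-designed siRNAs used to find CHO productivity engineering targets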 (primary screen)
Cell system: Chinese hamster CHO-K1 ovary cells with stable secreted eGFP expression
Reagents: single siRNA against mouse genes, 0.8 pmol siRNA per well (2 µl of 400 nM stock)
Timing: 3 days
Measured: 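Percent of the per-plate non-targeting control median for intracellular GFP per well by laser scanning cytometry and for cell viability by ATP luminescence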
Scale: GFP, % of control: higher = more GFP per well, higher productivity; viability (ATP), % of control: higher = more viable cells (more ATP)
Active means: 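Called active when intracellular GFP, relative to negative control, is at or above 120%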
In all, the deposit lists about 50,000 reagents; shown is a random part of them. About 4,000 of all reagents (8%) count as active. 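Mouse siRNA library applied to hamster cells; one well for each siRNA.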 The numbers tell different reagents against one gene apart.

gene knocked down	reagent no.	GFP, % of control	viability (ATP), % of control	Call
Tmem79 (transmembrane protein 79)	1	48.7	58.2	inactive
Tmem79 (transmembrane protein 79)	2	89.6	83.7	inactive
Tmem79 (transmembrane protein 79)	3	84.8	78.3	inactive
Zfp952 (zinc finger protein 952)	1	160	119	active
Zfp952 (zinc finger protein 952)	2	77	79.9	inactive
Zfp952 (zinc finger protein 952)	3	80.8	82.1	inactive
Pi4ka (phosphatidylinositol 4-kinase alpha)	1	104	114	inactive
Pi4ka (phosphatidylinositol 4-kinase alpha)	2	75.1	84.1	inactive
Pi4ka (phosphatidylinositol 4-kinase alpha)	3	98.9	87.9	inactive
Tcea2 (transcription elongation factor A (SII), 2)	1	46	48.4	inactive
Tcea2 (transcription elongation factor A (SII), 2)	2	104	72	inactive
Tcea2 (transcription elongation factor A (SII), 2)	3	74.1	75.2	inactive
Celsr2 (cadherin, EGF LAG seven-pass G-type receptor 2)	1	64.2	72.7	inactive
Celsr2 (cadherin, EGF LAG seven-pass G-type receptor 2)	2	27.9	48.2	inactive
Celsr2 (cadherin, EGF LAG seven-pass G-type receptor 2)	3	91.1	83.2	inactive
Cyp3a41a (cytochrome P450, family 3, subfamily a, polypeptide 41A)	1	73.3	36.8	inactive
Cyp3a41a (cytochrome P450, family 3, subfamily a, polypeptide 41A)	2	69.7	78.5	inactive
Cyp3a41a (cytochrome P450, family 3, subfamily a, polypeptide 41A)	3	35.3	59.9	inactive
Cers5 (ceramide synthase 5)	1	43.8	65.6	inactive
Cers5 (ceramide synthase 5)	2	150	113	active
Cers5 (ceramide synthase 5)	3	103	97.1	inactive
Bloc1s3 (biogenesis of lysosomal organelles complex-1, subunit 3)	1	95.6	75.9	inactive
Bloc1s3 (biogenesis of lysosomal organelles complex-1, subunit 3)	2	84	78.1	inactive
Bloc1s3 (biogenesis of lysosomal organelles complex-1, subunit 3)	3	107	155	inactive
Syngr2 (synaptogyrin 2)	1	56.1	58.6	inactive
Syngr2 (synaptogyrin 2)	2	109	67.7	inactive
Syngr2 (synaptogyrin 2)	3	87.9	61.9	inactive
Lgals7 (lectin, galactose binding, soluble 7)	1	68.9	50.8	inactive
Lgals7 (lectin, galactose binding, soluble 7)	2	47.8	33.1	inactive
Lgals7 (lectin, galactose binding, soluble 7)	3	84.1	63.6	inactive
Egfl8 (EGF-like domain 8)	1	83.8	99.1	inactive
Egfl8 (EGF-like domain 8)	2	99.7	93.7	inactive
Egfl8 (EGF-like domain 8)	3	97	81.4	inactive
Rasal2 (RAS protein activator like 2)	1	46	57.2	inactive
Rasal2 (RAS protein activator like 2)	2	51.2	66.6	inactive
Rasal2 (RAS protein activator like 2)	3	87.6	72.9	inactive
Or5i1 (olfactory receptor family 5 subfamily I member 1)	1	61.1	66.1	inactive
Or5i1 (olfactory receptor family 5 subfamily I member 1)	2	74	92.6	inactive
Or5i1 (olfactory receptor family 5 subfamily I member 1)	3	100	92.6	inactive
Ifna9 (interferon alpha 9)	1	62.3	62.8	inactive
Ifna9 (interferon alpha 9)	2	69	53.5	inactive
Ifna9 (interferon alpha 9)	3	43.8	46.5	inactive
Elavl1 (ELAV like RNA binding protein 1)	1	83.3	109	inactive
Elavl1 (ELAV like RNA binding protein 1)	2	80.1	65.6	inactive
Elavl1 (ELAV like RNA binding protein 1)	3	85.7	114	inactive
A730013G03Rik (RIKEN cDNA A730013G03 gene)	1	68.3	65.7	inactive
A730013G03Rik (RIKEN cDNA A730013G03 gene)	2	71	42.1	inactive
A730013G03Rik (RIKEN cDNA A730013G03 gene)	3	71	87.1	inactive
Scamp3	1	77.6	47.5	inactive
Scamp3	2	62.3	61.1	inactive
Scamp3	3	73.4	65.2	inactive
A030005L19Rik (RIKEN cDNA A030005L19 gene)	1	71.8	50.7	inactive
A030005L19Rik (RIKEN cDNA A030005L19 gene)	2	47.4	39.1	inactive
A030005L19Rik (RIKEN cDNA A030005L19 gene)	3	67.8	96.4	inactive
Necap2 (NECAP endocytosis associated 2)	1	71.8	67.5	inactive
Necap2 (NECAP endocytosis associated 2)	2	101	79.5	inactive
Necap2 (NECAP endocytosis associated 2)	3	62.5	95.1	inactive
Cdc50a (cell division cycle 50 P4-ATPase accessory subunit A)	1	81	81.3	inactive
Cdc50a (cell division cycle 50 P4-ATPase accessory subunit A)	2	66.2	92.1	inactive
Cdc50a (cell division cycle 50 P4-ATPase accessory subunit A)	3	130	109	active
Glipr2 (GLI pathogenesis-related 2)	1	49.7	61.1	inactive
Glipr2 (GLI pathogenesis-related 2)	2	80.2	80.9	inactive
Glipr2 (GLI pathogenesis-related 2)	3	55.2	84.8	inactive
Sectm1b (secreted and transmembrane 1B)	1	129	73.9	active
Sectm1b (secreted and transmembrane 1B)	2	70.5	69.6	inactive
Sectm1b (secreted and transmembrane 1B)	3	61.2	91.4	inactive
Pax9 (paired box 9)	1	126	108	active
Pax9 (paired box 9)	2	66.1	88.9	inactive
Add1 (adducin 1)	1	64.9	75.5	inactive
Add1 (adducin 1)	2	68.3	73.4	inactive
Add1 (adducin 1)	3	68.4	88.9	inactive
Camk1 (calcium/calmodulin-dependent protein kinase I)	1	92.7	59.7	inactive
Arl2 (ADP-ribosylation factor-like 2)	1	116	82.2	inactive
Arl2 (ADP-ribosylation factor-like 2)	2	75.4	73.2	inactive
Arl2 (ADP-ribosylation factor-like 2)	3	102	76.6	inactive
Slc72a1	1	89.5	77.5	inactive
Slc72a1	2	106	85.4	inactive
Slc72a1	3	78	50.8	inactive
Upb1 (ureidopropionase, beta)	1	74.7	75.3	inactive
Upb1 (ureidopropionase, beta)	2	136	88.4	active
Upb1 (ureidopropionase, beta)	3	72.8	75.3	inactive
Cdk20 (cyclin dependent kinase 20)	1	35.4	49.1	inactive
Cdk20 (cyclin dependent kinase 20)	2	116	59.8	inactive
Cdk20 (cyclin dependent kinase 20)	3	57.9	67.5	inactive

Active calls, of those listed so far:
gene knocked down	reagent no.	GFP, % of control	viability (ATP), % of control	Call
Zfp952 (zinc finger protein 952)	1	160	119	active
Cers5 (ceramide synthase 5)	2	150	113	active
Cdc50a (cell division cycle 50 P4-ATPase accessory subunit A)	3	130	109	active
Sectm1b (secreted and transmembrane 1B)	1	129	73.9	active
Pax9 (paired box 9)	1	126	108	active
Upb1 (ureidopropionase, beta)	2	136	88.4	active
